The target of this experiment is full-length gp130 S187-Y190 deletion mutant (gp130 ΔSY full-length) (human) (UniProt P40189). The experiment can be described thus: cryo-EM structure.

These are yes or no findings as the source states them, for the method shown. Some binding calls cover weakened binding; strength is not graded here.

B1: full-length gp130 S187-Y190 deletion mutant (gp130 ΔSY full-length) (receptor, human, UniProt P40189 23-918, looked up)
chain: ELLDPCGYISPESPVVQLHSNFTAVCVLKEKCMDYFHVNANYIVWKTNHFTIPKEQYTIINRTASSVTFTDIASLNIQLTCNILTFGQLEQNVYGITIISGLPPEKPKNLSCIVNEGKKMRCEWDGGRETHLETNFTLKSEWATHKFADCKAKRDTPTSCTVDYFVNIEVWVEAENALGKVTSDHINFDPVYKVKPNPPHNLSVINSEELSSILKLTWTNPSIKSVIILKYNIQYRTKDASTWSQIPPEDTASTRSSFTVQDLKPFTEYVFRIRCMKEDGKGYWSDWSEEASGITYEDRPSKAPSFWYKIDPSHTQGYRTVQLVWKTLPPFEANGKILDYEVTLTRWKSHLQNYTVNATKLTVNLTNDRYLATLTVRNLVGKSDAAVLTIPACDFQATHPVMDLKAFPKDNMLWVEWTTPRESVKKYILEWCVLSDKAPCITDWQQEDGTVHRTYLRGNLAESKCYLITVTPVYADGPGSPESIKAYLKQAPPSKGPTVRTKKVGKNEAVLEWDQLPVDVQNGFIRNYTIFYRTIIGNETAVNVDSSHTEYTLSSLTSDTLYMVRMAAYTDEGGKDGPEFTFTTPKFAQGEIEAIVVPVCLAFLLTTLLGVLFCFNKRDLIKKHIWPNVPDPSKSHIAQWSPHTPPRHNFNSKDQMYSDGNFTDVSVVEIEANDKKPFPEDLKSLDLFKKEKINTEGHSSGIGGSSCMSSSRPSISSSDENESSQNTSSTVQYSTVVHSGYRHQVPSVQVFSRSESTQPLLDSEERPEDLQLVDHVDGGDGILPRQQYFKQNCSQHESSPDISHFERSKQVSSVNEEDFVRLKQQISDHISQSCGSGQMKMFQEVSAADAFGPGTEGQVERFETVGMEAATDEGMPKSYLPQTVRQGGYMPQ
B1: the binding result was “binds weakly”.

The record behind these values is doi:10.1101/2025.11.11.685192 (bioRxiv, 2025).
